Results are given in words; binding and its absence hold for the method and conditions named. In cells and extracts the contact can be indirect. These calls come from enrichment with a bait or labelling near it, and not all partners need be listed. No binding means not detected with the bait.

The labels stand for the following.
B1: 1-Cys peroxiredoxin (1-Cys-Prx) (protein, UniProt Q8IAM2 1-220)
chain: MAYHLGATFPNFTATASNVDGVFDFYKYVGDNWAILFSHPHDFTPVCTTELAEFGKMHEEFLKLNCKLIGFSCNSKESHDQWIEDIKFYGNLDKWDIPMVCDESRELANQLKIMDEKEKDIKGLPLTCRCVFFISPDKKVKATVLYPATTGRNSQEILRVLKSLQLTNTHPVATPVNWKEGDKCCILPSVDNADLPKLFKNEVKKLDVPSQKAYLRFVQM
B2: Ornithine aminotransferase (from parasite lysate) (enzyme, UniProt Q6LFH8 1-414)
chain: MDFVKELKSSQDYMNNELTYGAHNYDPIPVVLKRGKGVFVYDIEDRRYYDFLSAYSSVNQGHCHPDILNAMINQAKKLTICSRAFFSDSLGVCERYLTNLFGYDKVLMMNTGAEASETAYKLCRKWGYEVKKIPENSAKIIVCNNNFSGRTLGCVSASTDKKCKNNFGPFVPNFLKVPYDDLEALEKELQDPNVCAFIVEPVQGEAGVIVPSDSYFPGVASLCKKYNVLFVADEVQTGLGRTGKLLCTHHYGVKPDVILLGKALSGGHYPISAILANDDVMLVLKPGEHGSTYGGNPLAAAICVEALKVLINEKLCENADKLGAPFLQNLKEQLKDSKVVREVRGKGLLCAIEFKNDLVNVWDICLKFKENGLITRSVHDKTVRLTPPLCITKEQLDECTEIIVKTVKFFDDNL
B3: Guanine nucleotide-binding protein, putative/receptor for activated C kinase homolog (protein, UniProt Q8IBA0 1-323)
chain: MMDNIKEAEISLRGVLEGGHSDWVTSVSTPTDPKLKTIVSASRDKKLIVWNINTDDDSGEIGTAKKSLTGHSQAINDVSISSDGLFALSGSWDHSVRLWDLSLGETIRSFIGHTSDVFSVSFSPDNRQIVSASRDKTIKLWNTLAQCKYTITDQQHTDWITCVRFSPSPNQAIIVSCGWDKLVKVWNLKNCDLNKNLEGHTGVLNTVTISPDGSLCASGGKDGVAKLWDVKEGKHLYSLETGSTINSLCFSPCDYWLCAATDRFIRIWNLESKLIISEIYPVKQSKIGVPWCTSLTWSANGQLLYCGSTDGNIYVYEVKKHSV
B4: Phosphoethanolamine N-methyltransferase, putative (enzyme, UniProt Q8IDQ9 1-266)
chain: MTLIENLNSDKTFLENNQYTDEGVKVYEFIFGENYISSGGLEATKKILSDIELNENSKVLDIGSGLGGGCMYINEKYGAHTHGIDICSNIVNMANERVSGNNKIIFEANDILTKEFPENNFDLIYSRDAILHLSLENKNKLFQKCYKWLKPTGTLLITDYCATEKENWDDEFKEYVKQRKYTLITVEEYADILTACNFKNVVSKDLSDYWNQLLEVEHKYLHENKEEFLKLFSEKKFISLDDGWSRKIKDSKRKMQRWGYFKATKN
B5: 2-Cys peroxiredoxin (2-Cys-Prx) (protein, UniProt Q8IL80 1-195)
chain: MASYVGREAPYFKAEAVFADNTFGEVNLHDFIGKKYVLLYFYPLDFTFVCPSEIIALDKALDAFKERNVELIGCSVDSKYTHLAWKKTPLTKGGIGNIQHTLISDITKSISRSYNVLFGDSVSLRAFVLIDKQGVVQHLLVNNLAIGRSVEEVLRIIDAVQHHEQHGDVCPANWKKGKVAMKPSEEGVSEYLSKL
B6: Human peroxiredoxin 2 (Prx 2) (protein, UniProt P32119 1-198)
chain: MASGNARIGKPAPDFKATAVVDGAFKEVKLSDYKGKYVVLFFYPLDFTFVCPTEIIAFSNRAEDFRKLGCEVLGVSVDSQFTHLAWINTPRKEGGLGPLNIPLLADVTRRLSEDYGVLKTDEGIAYRGLFIIDGKGVLRQITVNDLPVGRSVDEALRLVQAFQYTDEHGEVCPAGWKPGSDTIKPNVDDSKEYFSKHN
B7: 40S ribosomal protein S12 (protein, UniProt O97249 1-141)
chain: MSDVESADNNVVVEEKAVFDNVTAIQKVIKNAHVHDGLKIGIREVIKSIESQEAKVCFLSDVCSEPAYKKLITTLCAEKNIPLFMVQNDSKDLGHWAGLFKLDNEGNARKIIGASSVAVVDFGEDSAEKDFLLSQNQTVTA
B8: Plasmoredoxin (Thioredoxin-like redox-active protein) (protein, UniProt Q8I224 1-179)
chain: MACQVDNPPKTYPNDKTAEYEKYANYMNYLYYYQNNELKKIDSSYFKDKYLGLFFGASWCKYCVTFIDSLNIFKKNFPNVEIIYIPFDRTYQEYQSFLKNTNFYALPFDNYLYICKKYQIKNLPSFMLITPNNNILVKDAAQLIKTDEYINNLKSLIKNYIIHPKTFQFNNRFFDLFRN

For the test, the target named is PfGrx1^C32S (P. falciparum). Nature of the test: affinity purification with mass spectrometry; 1 mg pure active site mutant coupled to CNBr-activated Sepharose 4B; incubated with P. falciparum trophozoite cell lysate (7-10 mg protein) at room temperature for at least 2 h; washed with 100 mM Tris, 500 mM NaCl, pH 8.0; eluted with 10 mM DTT (mixed disulfide trapping); SDS-PAGE bands identified by MALDI-TOF peptide mass fingerprinting; only the target purified.
For the molecule B1, the binding entry is recorded as “no binding”. As for B2, the binding result is “binds”. For B3 the value was “binds”; for B4, “binds”.

On to B5, for which the binding result was “no binding”. B6: the binding entry is “no binding”. For B7, the binding entry is recorded as “binds”. Then B8, with “binds”.

The values are drawn from article PMC2660430.
